Where “and” joins values, the source holds several entries; their conditions need not be identical. Equal values may be shown once. The campaign covered roughly 330,000 compounds. About 230 (0.07%) were called active. Inconclusive results, whose numbers are uncertain, are shown with a selection of clear calls.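 Rule for the calls: active = more than half of a compound's replicate wells show inhibition beyond 50%, single wells judged on their own value; inconclusive = some, but no more than half, of replicates pass 50% inhibition; inactive = no replicate passes 50% inhibition.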
Target: Lysine-specific demethylase 4C (Homo sapiens) (UniProt Q9H3R0)
Assay: inhibitors of GASC-1 histone demethylase, primary screen, biochemical, fluorescence, DELFIA europium (AID 2099);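 note: signal counts dimethyl H3K9 product captured on neutravidin plate; 0% = median of DMSO wells and 100% = 0.3 times that DMSO median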
Details: GST-JMJD2C(1-420) H3K9me3 demethylation, at 2.35 µM, active compounds read high

The chains behind the UniProt entries cited, without tags or fusion partners. Residues count along the entry.
UniProt Q9H3R0, 1-420 limits assumed: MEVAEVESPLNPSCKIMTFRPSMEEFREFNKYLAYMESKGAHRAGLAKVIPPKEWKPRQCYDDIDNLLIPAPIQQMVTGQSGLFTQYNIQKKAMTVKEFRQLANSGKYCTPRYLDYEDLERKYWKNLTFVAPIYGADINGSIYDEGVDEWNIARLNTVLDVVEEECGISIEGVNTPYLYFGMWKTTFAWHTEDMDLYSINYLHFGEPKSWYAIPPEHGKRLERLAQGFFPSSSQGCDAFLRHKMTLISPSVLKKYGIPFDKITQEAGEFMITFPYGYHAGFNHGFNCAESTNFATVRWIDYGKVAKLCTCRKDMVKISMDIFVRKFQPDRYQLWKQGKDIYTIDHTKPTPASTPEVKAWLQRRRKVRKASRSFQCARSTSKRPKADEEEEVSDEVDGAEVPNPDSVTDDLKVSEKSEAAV

Compound | inhibition
Cc1ccc(O)c(NC2=C(Cl)C(=O)N(Cc3ccccc3)C2=O)c1 | inconclusive: -59.3%
CSc1ccccc1NC(=O)CN(C)C(=O)C1CCN(C(=O)Nc2ccccc2)CC1 | inconclusive: -187%
Cc1nn(-c2cc(N3CCOCC3)ccc2N)c(=O)c2ccccc12 | inactive: 3.67% and inactive: 7.18%
COc1ccccc1N(CC(=O)NC1CCCCC1)S(C)(=O)=O | inactive: 3.23%
COc1ccc(C(CNC(=O)C2CC2)N(C)C)cc1 (centres undefined) | inconclusive: -91.3%
COC(=O)Cc1c(C)c2ccc(OC(=O)c3ccccc3)cc2oc1=O | inconclusive: -117%
COc1c(C)c2c(c(O)c1C/C=C(\C)CCC(=O)O)C(=O)OC2 | inconclusive: -256%
O=C(O)c1cc(C2CC2)nc2ccccc12 | inconclusive: -58.7%
CC(=O)c1ccc(NC(=O)CCn2c(=O)oc3ccccc32)cc1 | inconclusive: -78%
COc1ccc(NC(=O)CN(C)C(=O)c2cn(-c3ccccc3)nc2-c2ccc(Cl)cc2)cc1 | inconclusive: -176%
CC1C(=O)N2CCCc3cc(NC(=O)c4ccccc4C(F)(F)F)cc1c32 (centres undefined) | inconclusive: -188%
COc1ccc(Oc2nc(C)nc3c2oc2ccccc23)cc1 | inactive: 4.56%
COC(=O)N1C(=O)[C@](Cc2ccccc2)(c2ccccc2)N1C(=O)OC | inactive: 5.15%
O=[N+]([O-])c1ccc(/C=[N+](\[O-])[C@@H]2CCCC[C@@H]2/[N+]([O-])=C/c2ccc([N+](=O)[O-])o2)o1 | active: 88.9%
Cc1c(OCC(=O)N2CCC(C(=O)O)CC2)ccc2c1oc(=O)c1ccccc12 | inconclusive: -269%
Cc1ccc(OCC(=O)OCc2nc3scc(-c4ccccc4)c3c(=O)[nH]2)cc1C | inactive: -12.2%
Oc1ccccc1-n1nc2ccc3nonc3c2n1 | inactive: 2.73%
C=CCN(CC=C)C(=O)C(=O)c1ccn(-c2c(C)csc2C(=O)OC)c1 | inconclusive: -54.8%
CC(C)CCNC(=O)C(C)N(Cc1ccc(F)cc1)C(=O)c1ccc(CN2CCCCC2)o1 (centres undefined) | inconclusive: -122%
CC(C)c1ccc(NC2CCCN(C(=O)CC3CCCC3)C2)cc1 (centres undefined) | inactive: 14.5%
O=C(C(c1ccccc1)c1ccccc1)N1CCN(CC(O)COc2ccccc2)CC1 (centres undefined) | inconclusive: -67.8%
CCC(c1nnc(SCC(=O)Nc2cc(S(C)(=O)=O)ccc2Cl)n1Cc1ccccc1)N(C)C (centres undefined) | inconclusive: -55.4%
O=C1C=CC(=O)N1CCCCCCN1C(=O)C=CC1=O | inactive: 3.53%

Compound | inhibition
O=C1NC(C(=O)O)=CC(c2ccc([N+](=O)[O-])cc2)N1 (centres undefined) | inactive: 2.97%
Cc1cccc(N(C(=O)c2snc(C(N)=O)c2N)C(C(=O)NCC2CCCO2)c2ccc3ncccc3c2)c1 (centres undefined) | inactive: -22.9%
CCOC(=O)N1CCN(C(=O)c2ccc(S(=O)(=O)Nc3cccc(C(F)(F)F)c3)cc2)CC1 | inconclusive: -37.3%
Cc1cnn(Cc2ccccc2)c1N | inconclusive: -58.6%
COc1ccc(/C=C2\Sc3ccc(C(=O)N4CCCC4)cc3N(C)C2=O)cc1OC | active: 52.7%
CC(=O)N/C(=C\c1ccccc1)C(=O)OCc1ccccc1 | inactive: 1.5%
Cc1cccc(OCC(=O)N2CCC(N3CCOCC3)CC2)c1 | inactive: -6.75%
O=C(Nc1ccc2c(c1)CCC2)c1ncoc1-c1ccccc1F | inactive: -8.31%
O=C1C2CCCN2C(c2ccccc2F)N1c1ccc(Cl)cc1 (centres undefined) | inconclusive: -182%
FC(F)(F)c1cc(-c2cccs2)nc(N2CCOCC2)n1 | inconclusive: -61.2%
O=C(O)c1cccc(S(=O)(=O)Nc2cccc3ccccc23)c1 | inactive: -9.22%
CCC(C)[C@H](NC(=O)N1CC(=O)Nc2ccccc21)C(=O)N[C@@H](Cc1c[nH]c2ccccc12)C(=O)O (some centres undefined) | inconclusive: -230%
Cc1ccc(/C=N/NC(=O)CSc2nc3ccccc3c(=O)n2-c2ccccc2)s1 | inactive: -7.78%
COc1cc2c(cc1OC)CN(C(=O)c1ccc(S(=O)(=O)N3CCCC3)cc1)CC2 | inactive: -0.47%
CSCc1cc(N(C)C)nc(SCc2ccc(Cl)cc2Cl)n1 | inconclusive: -80.8%
N#CC1(NC(=O)CSc2ccccn2)CCCCC1 | inconclusive: -121%
O=C(NCCc1ccccc1)c1ccc([N+](=O)[O-])cc1 | inconclusive: -77.8%
CC(=O)c1cccc(OCc2cc(C(=O)N(C)Cc3ccc(C)o3)no2)c1 | inactive: -4.26%
CCOc1ccc(Cl)cc1C(c1c(C)[nH][nH]c1=O)c1c(C)[nH][nH]c1=O | inconclusive: -55.3%
CCCS(=O)(=O)c1ccc(COC(=O)Cc2ccc([N+](=O)[O-])cc2)cc1 | inconclusive: -51.9%
COc1ccnc(Oc2ccccc2)c1C#N | inconclusive: -268%
COc1ccc(C(=O)NCCNc2nc3ccc(C)cc3cc2C#N)cc1 | inconclusive: -56.3%
Cc1ccc(C(=O)Oc2ccc3ccc(=O)oc3c2)cc1 | inactive: -9.39%

4 neighbouring records from above:
Compound | inhibition
Cc1cccc(N(C(=O)c2snc(C(N)=O)c2N)C(C(=O)NCC2CCCO2)c2ccc3ncccc3c2)c1 (centres undefined) | inactive: -22.9%
CCOC(=O)N1CCN(C(=O)c2ccc(S(=O)(=O)Nc3cccc(C(F)(F)F)c3)cc2)CC1 | inconclusive: -37.3%
Cc1cnn(Cc2ccccc2)c1N | inconclusive: -58.6%
COc1ccc(/C=C2\Sc3ccc(C(=O)N4CCCC4)cc3N(C)C2=O)cc1OC | active: 52.7%

Next compounds

Compound | inhibition
CC(C)(C)c1ccc(C(=O)Nc2ccc(Cl)cc2)cc1 | inactive: -12.2%
COc1cccc(CNc2nccs2)c1O | inactive: 4.83%
COc1ccccc1COCC(O)CN1CCN(S(=O)(=O)c2cccc(F)c2)CC1 (centres undefined) | inactive: -5.74%
COc1ccc(S(=O)(=O)Nc2cc3c4c(c2)CC(=O)N4CCC3)cc1 | inconclusive: -32.4%
O=C(O)c1ccc(OCCn2ccnc2)cc1 | inconclusive: -27.2%
CCOC(=O)/C=C/C(=O)N1CCc2ccccc21 | inconclusive: -64.7%
COc1cc(/C=C/c2cc(C(=O)O)c3ccccc3n2)cc(OC)c1O | inactive: 6.55%
Cc1cccc(N=C(N2CCOCC2)P(=O)(N2CCOCC2)N2CCOCC2)c1 | inconclusive: -53.8%
CCOC(=O)C(Nc1ccc2ccccc2c1)C(=O)OCC | inactive: -1.29%
O=C(NC1CCCCC1)NC1CC2CCC(C1)N2C(=O)NCc1ccccc1 (centres undefined) | inconclusive: -55%
Cc1ccc(OC(C)C(=O)Nc2cc(C)on2)cc1 (centres undefined) | inconclusive: -54.6%
O=C(OCc1cc(=O)oc2cc(O)ccc12)c1cc(S(=O)(=O)N2CCOCC2)ccc1F | inactive: 3.5%
Cc1nc2ccccc2c(=O)n1-c1ccc(NS(=O)(=O)c2ccc(F)cc2)cc1 | inconclusive: -25.6%
CCOc1cc(CC(=O)N[C@@H](CC(C)C)c2ccccc2N2CCCCC2)ccc1C(=O)O | inconclusive: -50.8%
Cc1cccc(N2CCN(C(=O)Cn3cccc3C(=O)c3ccccc3)CC2)c1C | inconclusive: -62.6%
O=C(CSc1ncnc2ccccc12)Nc1ccc2c(c1)OCCO2 | inactive: -3.54%
CC1CN(S(=O)(=O)c2cccc(C(=O)NNC(=O)C(C)Oc3ccccc3F)c2)CC(C)O1 (centres undefined) | inconclusive: -125%
COCCNC(=O)C(c1ccco1)N(C(=O)Cn1nnc2ccccc21)c1cccc(C)c1C (centres undefined) | inconclusive: -147%
CCOc1cc(NC(=S)NCC2CCCO2)c(OCC)cc1NC(=O)CC (centres undefined) | inconclusive: -51.7%
O=C(Nc1ccc(F)cc1F)c1cccn1-c1ncc(C(F)(F)F)cc1Cl | inconclusive: -174%
Cc1oc(-c2cccc(Cl)c2)nc1CS(=O)(=O)CC(=O)NCCCN1CCOCC1 | inactive: 1.58%
COc1cc(CN2CCC(n3nccc3NC(=O)CCCc3ccccc3)CC2)ccc1O | inconclusive: -59.3%
O=C(OCc1cccc2ccccc12)C1CC(=O)N(c2ccccc2)C1 (centres undefined) | inconclusive: -56.9%

Compound | inhibition
O=C(O)c1cc2nc3c(c(C(F)(F)F)n2n1)CCc1ccccc1-3 | inactive: -6.95%
COc1cc(OC)nc(NC(=O)CS(=O)(=O)c2ccccc2)n1 | inconclusive: -50.9%
COc1c(C)cc(C(=O)C2CCCN(S(=O)(=O)N(C)C)C2)cc1C (centres undefined) | inconclusive: -53.9%
O=C(Nc1cccc(Cl)c1)Nc1nnc(CC2=CCCCC2)s1 | inconclusive: -52.9%
CCn1nc(C)cc1C(=O)N1CCCC(C(=O)c2ccccc2SC)C1 (centres undefined) | inactive: 2.38%
Cc1ccc(NS(=O)(=O)c2ccc(C(=O)N3CCCN(C)CC3)cc2)cc1 | inconclusive: -61.9%
CCN(CC)CCNC(=O)c1cc(Nc2ccc(OC)c(OC)c2)nc2ccccc12 | inactive: 8.81%
COc1ccc(OC)c(S(=O)(=O)NCc2nc3nc(C)cc(C)n3n2)c1 | inactive: -0.716%
O=c1ccnc(Nc2ccc3c(c2)OCCO3)[nH]1 | inconclusive: -51.9%
Clc1ccc(Cc2noc(CN3CCN(c4ccccc4)CC3)n2)c(Cl)c1 | inconclusive: -61%
Cc1ccc(C(=O)Nc2nc3ccccc3c(=O)s2)cc1 | inactive: 3.15%
CCN(C(=O)CN1CCc2ccccc21)c1c(N)n(Cc2ccccc2)c(=O)[nH]c1=O | inconclusive: -74.7%
COc1cc(Br)cc(CN2CCN(C/C=C/c3ccccc3)CC2)c1O | inconclusive: -30.9%
COc1cccc(-c2cnc(OC(C)(C)C)nc2OC(C)(C)C)c1 | inconclusive: -75%
COc1ccccc1NC(=O)CN1CCC(n2c(C)nc3cc(F)ccc32)CC1 | inconclusive: -113%
Cc1ccccc1OCCn1ccnc1 | inactive: -3.4%
Cc1ccc(OCCC(=O)Nc2ccc(F)c(Cl)c2)cc1 | inactive: -2.38%
CCOc1ccc(N2C(=O)CC(NCCc3ccncc3)C2=O)cc1 (centres undefined) | inconclusive: -31.4%
CSc1ccccc1NC(=O)Nc1cccc2ccccc12 | inactive: 8.38%
COc1cccc(NC(=O)CSc2nc(N)cc(N)n2)c1 | inconclusive: -202%

Reference: PubChem BioAssay AID2099 (Broad Institute, 2009)
